42 sequences from PMC7819943, “Rice protein-binding microarrays: a tool to detect cis-acting elements near promoter regions in rice” can be followed below.

Amino acid sequences for entries named in this document (tags omitted).
UniProt Q0JBA9, entry or part of it: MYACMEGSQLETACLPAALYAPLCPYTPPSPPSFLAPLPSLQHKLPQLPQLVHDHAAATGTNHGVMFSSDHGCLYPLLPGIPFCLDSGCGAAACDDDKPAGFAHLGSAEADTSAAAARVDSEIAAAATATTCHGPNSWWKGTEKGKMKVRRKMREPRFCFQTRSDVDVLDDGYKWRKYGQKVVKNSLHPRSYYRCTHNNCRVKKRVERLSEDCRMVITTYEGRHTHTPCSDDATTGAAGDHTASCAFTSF

Some of the results follow.

The assay deals with OsWRKY34 (Oryza sativa, UniProt Q0JBA9 1-250). The assay can be described thus: protein-binding microarray (RPBM); PBS, 2% BSA, 51.3 ng/ul salmon testes DNA, 50 uM zinc acetate, 200 nM TF, 25 C, 1 h; high values mean tight binding. As to conditions: protein: recombinant; tags: N-terminal polyhistidine and DsRed monomer fusion (pET32a); label: CyDye5-dUTP incorporated in the synthesized complementary strand; 3' TTTTT single-stranded linker to array surface; dsDNA, one strand shown. A digest of the protocol:
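Using Ni–NTA, transcription factors fused N-terminally to polyhistidine and DsRed were purified after expression in E. coli BL21-CodonPlus. These were incubated at 200 nM with a blocked, double-stranded custom Agilent array for 1 h at 25 °C in a buffer containing 50 µM zinc acetate, and the array was washed. The binding signal is per-feature fluorescence intensity (arbitrary units) on an Axon 4000B scanner.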
For “ATCTCACCATCCCATCCACGCTTCTCGACTCCCAGACGACCGGAGTCACCTAGTGCAG”, the binding signal is 9740 fluorescence intensity (a.u.).

For the sequence “CCTCCAATCCACTGGTAGCACACGCACGTCCATTCTTCGTCGGAGTCACCTAGTGCAG”, the binding signal was 9100 fluorescence intensity (a.u.).

“CTTCGTCACCCGGTATCCTTGACCGTTTGGACCTCAACTCCGGAGTCACCTAGTGCAG”: the binding signal was 10100 fluorescence intensity (a.u.).

On to “CTCACCTGCTCCTACTTACAGACAAGGCCTTGGGCCCTTACGGAGTCACCTAGTGCAG”, for which the binding signal is 8810 fluorescence intensity (a.u.).

As to “ACATTTTTTATATACTTCCTCCGTTTCACAATGTAAGTCACGGAGTCACCTAGTGCAG”, the binding signal was 8230 fluorescence intensity (a.u.).

On to “ATTATCAATTTGTTATTGTGTACCTCGGTTGACTCCTGGACGGAGTCACCTAGTGCAG”, for which the binding signal is 8200 fluorescence intensity (a.u.).

In the case of “TTAATATATTTTTTAGCTACTTCATATTATATACTTGTTACGGAGTCACCTAGTGCAG”, the binding signal is 8090 fluorescence intensity (a.u.).

As to “ACCCGTTCCACCGCCTCGCCGTCCACTTCCAAACCCAACCCGGAGTCACCTAGTGCAG”, the binding signal is 8740 fluorescence intensity (a.u.).

Consider “CCTATTTATCCTTTATTCTCTAGCATAGCATTGTCTTAGGCGGAGTCACCTAGTGCAG”, for which the binding signal is 8670 fluorescence intensity (a.u.).

For “TTTCACCTCGATATTTTCCCTTGGAGACTCGTACATCGACCGGAGTCACCTAGTGCAG”, the binding signal was 9230 fluorescence intensity (a.u.).

With “TTCATACCTATAGCCGCCACGGACTCTTTTCATTCATTCCCGGAGTCACCTAGTGCAG”, the binding signal is 9980 fluorescence intensity (a.u.).

Regarding “TGTTCTTCAAGTTCCTGCGCATGTCTCCAGCCAACTCCCACGGAGTCACCTAGTGCAG”, the binding signal is 8570 fluorescence intensity (a.u.).

Consider “ATAATTTGTTCATGCTCTCACTCCTTTGGGAGGTGCTCATCGGAGTCACCTAGTGCAG”, for which the binding signal is 8460 fluorescence intensity (a.u.).

For “CCTACACGTGTCCATCCTCAACCACGCGTCGGCACCTCCACGGAGTCACCTAGTGCAG”, the binding signal was 8340 fluorescence intensity (a.u.).

For “ATCCTCTACGCATCCACCTGTGCCTCCTTTAATTCTAAGTCGGAGTCACCTAGTGCAG”, the binding signal was 11000 fluorescence intensity (a.u.).

As to “ATGGGAAGGGAATAATAATAATGCGTTGGGTTGGGTTCCGCGGAGTCACCTAGTGCAG”, the binding signal is 8380 fluorescence intensity (a.u.).

On to “GGGGATTTTACAACACATGAGTTCCTGCAGCTACATTTTACGGAGTCACCTAGTGCAG”, for which the binding signal is 12200 fluorescence intensity (a.u.).

For the sequence “AGCCGTTAGGATCGCCCGCTCGCCGCAACGTTCTCTTTTTCGGAGTCACCTAGTGCAG”, the binding signal is 8520 fluorescence intensity (a.u.).

With “CGTCGTTGACTCCTCTATAGTTGGTACTAGCTGTTAACTCCGGAGTCACCTAGTGCAG”, the binding signal is 10300 fluorescence intensity (a.u.).

“CGAATTTTATCGCGCCCTCCGCATCATTCCGTCCGTTTTTCGGAGTCACCTAGTGCAG”: the binding signal was 9720 fluorescence intensity (a.u.).

As to “TTGCCAATGAGCTGCATGCCCTCACAGTCACATGTGAGACCGGAGTCACCTAGTGCAG”, the binding signal was 8090 fluorescence intensity (a.u.).

For “AACTCTTGACAGCACCGACCATACGTGTACACAACCCATCCGGAGTCACCTAGTGCAG”, the binding signal is 8640 fluorescence intensity (a.u.).

Turning to “TCTTCATTCATTTTCATTTTCCAATCCCACATCTCATAACCGGAGTCACCTAGTGCAG”, the binding signal was 9860 fluorescence intensity (a.u.).

Consider “GTACTCAGTCTTGCTCTATTTTCCCCAAACCCCAGAGTTTCGGAGTCACCTAGTGCAG”, for which the binding signal is 8500 fluorescence intensity (a.u.).

In the case of “GTGTGTGTAGGAAAGTTTTGATGTGATGGAAAAGTTGGAACGGAGTCACCTAGTGCAG”, the binding signal is 8720 fluorescence intensity (a.u.).

For the sequence “CTTTGCTTGGTTGCTTGTGTTGTGTGCTGTGCTGTGCAGTCGGAGTCACCTAGTGCAG”, the binding signal is 8220 fluorescence intensity (a.u.).

For “GCGATGTGTGGAGATTGGATGGTTGGCTTCTTCTCGGTTTCGGAGTCACCTAGTGCAG”, the binding signal is 10700 fluorescence intensity (a.u.).

On to “ACATGGTCACGTACTCACATCACATACATACATACAGACACGGAGTCACCTAGTGCAG”, for which the binding signal is 8030 fluorescence intensity (a.u.).

With “ATTTTTACCTGTTACCTGTAGTTGCCGTACTCGCGAACAGCGGAGTCACCTAGTGCAG”, the binding signal is 8060 fluorescence intensity (a.u.).

For the sequence “TGTGGCTCATCAGTACTACTGCATCATGATTCCGATAATTCGGAGTCACCTAGTGCAG”, the binding signal is 8250 fluorescence intensity (a.u.).

Turning to “TGTGATTGCACATATATTTTCCTATTCCACATATTCCACACGGAGTCACCTAGTGCAG”, the binding signal is 9130 fluorescence intensity (a.u.).

“GATCCTGGGTTCTACTTCTACGGGTCAAAAACAATTGTCCCGGAGTCACCTAGTGCAG”: the binding signal is 9250 fluorescence intensity (a.u.).

For “CGCCTATACCCCACCCGTCGTCAGTCGTCACTGCGCTCCACGGAGTCACCTAGTGCAG”, the binding signal was 9570 fluorescence intensity (a.u.).

For the sequence “TCGCTCTCGGAGACCGAGTCCGAGCGAGCTGATCTGTTTTCGGAGTCACCTAGTGCAG”, the binding signal was 8660 fluorescence intensity (a.u.).

Consider “GACACCGTTGACTTTTTAGCACATGTTTGACCGCTCATCTCGGAGTCACCTAGTGCAG”, for which the binding signal was 32800 fluorescence intensity (a.u.).

Turning to “CCTATATAAACCGCGCGTTTGCCTCACCTTTCACTTCATCCGGAGTCACCTAGTGCAG”, the binding signal was 9790 fluorescence intensity (a.u.).

Take “GCTCACAACGCGCGTACCCTTGTCTCTATGAACGTCCTTGCGGAGTCACCTAGTGCAG”: the binding signal was 9370 fluorescence intensity (a.u.).

Regarding “TTTTATTGACTAATTTATGGGGTTTGTTTTGCCACTTTTGCGGAGTCACCTAGTGCAG”, the binding signal is 8440 fluorescence intensity (a.u.).

“TGGGGTAGGGGTGGGATGAGAAAGAAGGAGAGATCGCCGGCGGAGTCACCTAGTGCAG”: the binding signal was 8590 fluorescence intensity (a.u.).

“AGCAAACCATGTTCAGTTAATCAATTTTTGCCATCAAGTTCGGAGTCACCTAGTGCAG”: the binding signal is 8620 fluorescence intensity (a.u.).

For “CTTCGCCGGCGTCTCCGCCTCCGCATCTACGCCTGATTGACGGAGTCACCTAGTGCAG”, the binding signal was 10500 fluorescence intensity (a.u.).

As for “ATCCATCCATTGGCCAAGTGGCTGCCGTGCTGCACCTATACGGAGTCACCTAGTGCAG”, the binding signal is 8130 fluorescence intensity (a.u.).
